Source: patent US7041818B2, “DDS compound and method for measurement thereof” (priority 1998, dated 2006)

Key:
[1] = Drug content of DDS compound by peptidase treatment and HPLC of the released hydrolysate; conditions: Britton Robinson buffer pH 6, 40° C.
[2] = Drug content of DDS compound based on UV absorption; conditions: calibration with DX-8951
[3] = papain, 4 hours, hydrolysate by HPLC

Substance | DX-8951 content of DDS compound ([1]; α-chymotrypsin, hydrolysate quantified by HPLC) [%] | DX-8951 content of DDS compound [2] [%] | DX-8951 content of DDS compound [1, 3] [%]
CM-Dex-PA-Gly-Gly-Gly-Phe-NH—Y′—CH2—O—CO-DX-8951 | 2.5 | 1.7 | –
CM-Dex-PA-Gly-Gly-Phe-Gly-NH—(CH2)4—CO-DX-8951 (GGFG; CM-dextran carrier, DX-8951 drug conjugate; Spacer Sequence) | – | 3.1 | 3.0
CM-Dex-PA-Gly-Gly-Phe-Gly-NH—Y′—CH2—O—CO-DX-8951 | – | 3.3 | 4.0
